# Assay results published in PubChem BioAssay AID1439 (NMMLSC, 2008).
# Chains of the proteins cited; added tags and fusions are not shown.
# UniProt P09471, whole entry, looked up: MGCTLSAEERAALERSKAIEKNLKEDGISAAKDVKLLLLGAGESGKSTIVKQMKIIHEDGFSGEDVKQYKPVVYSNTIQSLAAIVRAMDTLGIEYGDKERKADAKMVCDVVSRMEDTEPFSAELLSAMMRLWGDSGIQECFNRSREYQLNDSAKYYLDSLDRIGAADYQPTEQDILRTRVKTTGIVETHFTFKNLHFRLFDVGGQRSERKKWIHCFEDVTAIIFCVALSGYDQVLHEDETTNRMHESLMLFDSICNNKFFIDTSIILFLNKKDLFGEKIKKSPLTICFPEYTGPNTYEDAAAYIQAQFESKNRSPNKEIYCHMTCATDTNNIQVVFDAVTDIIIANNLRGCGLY
# The campaign covered roughly 220,000 compounds. About 770 (0.35%) were called active. Inconclusive means that the source gave no clear call. Such entries were picked first, then a sample of the others. No stated cut-off is given here; in the data, active means binding response below about 49% or above about 150%; inconclusive means no clear call, values can overlap the other calls; inactive means in between.
# Target: Guanine nucleotide-binding protein G(o) subunit alpha (Homo sapiens) (UniProt P09471)
# Assay: RGS7-Galphao binding modulators, primary screen, biochemical, multiplexed bead flow cytometry (AID 1439);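 further: fluorescent Galphao held in activated GDP-AlF4 state binding bead-coupled RGS7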
# Conditions: at 10 µM, actives lie on both sides
row,SMILES,binding response (% of control)
1,CC1=CSC2=NC(C(F)(F)F)(C(F)(F)F)NC(=O)N12,inconclusive: 109%
2,CN(C)C(=O)CCSc1nnc(-c2ccco2)o1,inconclusive: 90.5%
3,COc1ccc(CC(=O)NNC(=S)NC(=O)c2cccnc2)cc1,inconclusive: 83%
4,Cc1ccc(OCC(=O)O/N=C(\N)Cc2ccc(Cl)cc2)cc1,inactive: 96.2%
5,CC(NC(=O)C(C)(C)C)C(c1cccs1)N1CCOCC1 (stereo unspecified),inconclusive: 80.7%
6,Cc1cc(C)cc(N(CC(=O)Nc2c(C)n(C)n(-c3ccccc3)c2=O)S(C)(=O)=O)c1,active: -21.3%
7,CS/C(=C\C(=O)c1ccco1)Nc1ccccc1Cl,inconclusive: 124%
8,C=CCNC(=S)NNC(=O)CC12CC3CC(CC(C3)C1)C2,inconclusive: 118%
9,CC(C)[C@H](NC(N)=O)C(=O)Nc1cccc([N+](=O)[O-])c1,inconclusive: 98.9%
10,O=C(O)CC1(CC(=O)Nc2cc3ccccc3cn2)CCCCC1,inconclusive: 101%
11,CCOc1ccc(Nc2nc(N)nc(CSC(=S)N3CCN(c4ccccc4)CC3)n2)cc1,inconclusive: 70.2%
12,COc1ccc(Cc2c(O)nc(SCC(=O)N3CCOCC3)[nH]c2=O)cc1,inconclusive: 57.7%
13,Cc1nc(N2CCOCC2)[nH]c(=O)c1C(O)C(Cl)(Cl)Cl (stereo unspecified),inconclusive: 101%
14,CC(C)N(Cc1ccccc1)C(=S)NC1CCCCC1,inconclusive: 102%
15,CCCCc1c(C)nc2ccccc2c1SCCC(=O)O,inactive: 98.9%
16,COc1ccc(N2CCN(S(=O)(=O)c3cccs3)CC2)cc1,inactive: 99.6%
17,CCOC(=O)C(=O)N1CCC(C(=O)OCC)CC1,inconclusive: 116%
18,COc1ccccc1/C=C(/C#N)C(=O)O,inconclusive: 137%
19,O=[N+]([O-])c1ccc(SCc2c(F)cccc2Cl)nc1,inconclusive: 99.3%
20,O=C(CSc1nnc(NCc2ccccc2)s1)NC1CCS(=O)(=O)C1 (stereo unspecified),inconclusive: 84.7%
21,COc1ccccc1CNC(=O)C1CC(c2ccccc2F)=NO1 (stereo unspecified),inconclusive: 100%
22,COC(=O)c1cc(S(=O)(=O)Nc2nn(C)c3cccc(F)c23)oc1C,inconclusive: 58.8%
23,O=C(CC1SC(=O)N(c2ccccc2)C1=O)Nc1ccc(Br)cc1 (stereo unspecified),inconclusive: 76.7%

row,SMILES,binding response (% of control)
1,Cn1c(S(=O)(=O)O)nc2ccccc21,inconclusive: -686%
2,Cc1nnc(-c2cnn(C)c2N)n1Cc1ccccc1F,inactive: 96.6%
3,O=P(c1ccccc1)(c1ccccc1)c1nc(-c2ccc(Cl)cc2)oc1N1CCOCC1,inconclusive: 95.9%
4,O=C(N/N=C/c1ccc2c(c1)OCO2)c1cc2ccccc2o1,inconclusive: 180%
5,O=C(Nc1ccccc1[N+](=O)[O-])c1cc2ccccc2nc1Cl,inconclusive: 94.6%
6,O=c1cc(-c2ccc(O)cc2)oc2c(O)c(O)c(O)c(O)c12,inconclusive: 95.9%
7,Cc1ccc(/C=N/n2c(-c3ccncc3)n[nH]c2=S)s1,inconclusive: 405%
8,Cc1cc(/C=C(\C#N)C(=O)NCc2cccs2)c(C)[nH]1,inactive: 110%
9,CCN(N=O)[C@@H](Cc1ccccc1)CN(N=O)[C@@H](Cc1ccccc1)CN(C)N=O,active: 17.1%
10,Fc1ccc(COc2cccc(-c3n[nH]c(=S)o3)c2)cc1,inactive: 103%
11,CS(=O)(=O)NCc1nnc(SCc2ccc(C(F)(F)F)cc2)o1,inconclusive: 98.4%
12,CCc1cccc(C)c1NC(=S)N(CCOC)C(C)c1ccco1 (stereo unspecified),inconclusive: 81.1%
13,CCCCC1=CC2=C(c3ccco3)C(=O)C(C)(OC(=O)c3ccc(OC)cc3)C(=O)C2=CN1C1CCCCC1 (stereo unspecified),inconclusive: 82.2%
14,O=C(CNC(=O)c1ccc2c(c1)OCCO2)N/N=C/c1ccco1,inconclusive: 222%
15,c1ccc(Cn2nnc(CNc3ccccc3)c2-c2c(CNc3ccccc3)nnn2Cc2ccccc2)cc1,inconclusive: 78.6%
16,CC(C)(CO)N1CCN(C(=S)Nc2ccccc2)CC1,inconclusive: 87.6%
17,Cn1nc(C(=O)Nc2ccc(S(=O)(=O)Nc3ncccn3)cc2)ccc1=O,inconclusive: 121%
18,CCNCCC(CCC(C)C)c1ccc2c(c1)OCO2 (stereo unspecified),inconclusive: 118%
19,COc1ccccc1Nc1nc(N)nc(CSC(=S)N2CC(C)CC(C)C2)n1 (stereo unspecified),inactive: 98.3%
20,COCCNc1nc(C)cc(-c2cc(-c3ccc(Cl)cc3)on2)n1,inconclusive: 94.5%
21,CS(=O)(=O)N(CC(=O)NCCSCc1ccccc1)c1ccccc1,inactive: 96.9%
22,O=C(O)c1ccc(/C=C(\c2nc3ccccc3[nH]2)c2nc3ccccc3s2)cc1,inconclusive: 110%
23,COc1ccc(C)cc1N(CC(=O)Nc1ccc2c(c1)OCCO2)S(C)(=O)=O,inconclusive: 99.4%

# 5 compounds from above, ordered by heavy-atom count, smallest number first:
row,SMILES,binding response (% of control)
7,Cc1ccc(/C=N/n2c(-c3ccncc3)n[nH]c2=S)s1,inconclusive: 405%
10,Fc1ccc(COc2cccc(-c3n[nH]c(=S)o3)c2)cc1,inactive: 103%
17,Cn1nc(C(=O)Nc2ccc(S(=O)(=O)Nc3ncccn3)cc2)ccc1=O,inconclusive: 121%
23,COc1ccc(C)cc1N(CC(=O)Nc1ccc2c(c1)OCCO2)S(C)(=O)=O,inconclusive: 99.4%
15,c1ccc(Cn2nnc(CNc3ccccc3)c2-c2c(CNc3ccccc3)nnn2Cc2ccccc2)cc1,inconclusive: 78.6%

# Continued.

row,SMILES,binding response (% of control)
1,c1ccc2c(NC3C4CC5CC(C4)CC3C5)nc(N3CCOCC3)nc2c1 (stereo unspecified),inactive: 100%
2,CC1=C(C(=O)OC(C)C)C(c2ccccc2)NC(=S)N1C (stereo unspecified),inactive: 102%
3,CCc1ccc(C(=O)NC(CCSC)C(=O)OC)cc1 (stereo unspecified),inconclusive: 94.6%
4,C[C@@H]1CC[C@]2(O[C@@H](CCO)C[C@@H](O)[C@@H]2O)O1,inconclusive: 97%
5,Nc1nc(SCC(=O)N2CCCCC2)[nH]c(=O)c1NC(=O)c1cccs1,inconclusive: 124%
6,FC(F)(F)c1cc(N2CCNCC2)c2ccccc2n1,inconclusive: -111%
7,COc1cc(OC)cc(C(=O)N[C@H](C(=O)Nc2ccc3c(c2)OCO3)C(C)C)c1,inactive: 107%
8,O=C(Nc1nc2c(ccc3ccccc32)s1)c1cc([N+](=O)[O-])ccc1N1CCOCC1,inconclusive: 104%
9,Cc1ccc(N2CCN(/N=C/c3ccncc3)CC2)cc1,inconclusive: 84.1%
10,Cc1c(NC(=O)C(C)N2CC(C)OC(C)C2)c(=O)n(-c2ccccc2)n1C (stereo unspecified),inactive: 102%
11,CCc1cccc(CC)c1NC(=S)/C(=C(\[O-])c1ccc(Cl)s1)[n+]1ccccc1,inconclusive: 100%
12,C/C(=C\c1cc(C(=O)O)c(C)o1)CO,inactive: 104%
13,Cc1cc(C(=O)N/N=C/c2ccc(-c3cccc(Br)c3)o2)n[nH]1,inconclusive: 85.9%
14,COc1ccc2[nH]c(=O)c(CN(C(=O)c3cccnc3)c3ccccc3C)cc2c1,inconclusive: 632%
15,Cc1ccc(-c2nn(-c3ccccc3)cc2C=O)o1,inconclusive: 124%
16,O=C(NCCCn1ccnc1)c1cccc(S(=O)(=O)NCc2ccccc2)c1,inactive: 103%
17,CCOC(=O)c1c(C)[nH]c(C(=O)COC(=O)c2ccccn2)c1C,inactive: 105%
18,COc1cc(NC(=O)Cn2nc(C(F)(F)F)c(Br)c2C)cc([N+](=O)[O-])c1,inactive: 98.5%
19,Cc1ccc2c(CN3CCOCC3)cc(=O)oc2c1,inconclusive: 79.1%
20,Cc1ccc(/C([O-])=C(/C(=S)NCCN2CCOCC2)[n+]2ccccc2)cc1[N+](=O)[O-],inconclusive: 128%
21,CCOC(=O)c1ccc(NC(=O)c2nc[nH]c2C(=O)NCCCCCNC(=O)OC(C)(C)C)cc1,inconclusive: 117%
22,COC(=O)c1ccc(N=Cc2c(C(F)(F)F)[nH][nH]c2=O)cc1,inconclusive: 84.4%
23,O=C(COc1ncnc2sccc12)N1CCN(c2ccccc2)CC1,inconclusive: 85.8%

row,SMILES,binding response (% of control)
1,CC(=O)NCC(=O)N1CCCC(C(=O)c2ccc(Oc3ccccc3)cc2)C1 (stereo unspecified),inactive: 79.8%
2,CCC1(c2ccccc2)NC(=O)N(Cc2cccc([N+](=O)[O-])c2)C1=O (stereo unspecified),inconclusive: 104%
3,CC(=O)Nc1nnc(SCC(=O)Nc2ccc(N3CCOCC3)c(Cl)c2)s1,inconclusive: 70.1%
4,CCOC(=O)CCSc1n[nH]c(=S)s1,inconclusive: 245%
5,CC(C)(C)CC(=O)Nc1cccc(-c2cn3cccnc3n2)c1,inconclusive: 152%
6,O=C(O)c1ccccc1NS(=O)(=O)c1ccc2c3c(cccc13)C(=O)N2,inactive: 133%
7,COc1ccc(NC(=O)CCC(=O)N/N=C/c2cn(C)nc2C)cc1,inconclusive: 124%
8,CC(=O)c1c(C)[nH]c(-c2ccccc2)nc1=S,inconclusive: 119%
9,CN(C)C(=O)COC(=O)c1ccccc1Sc1ccccc1C#N,inconclusive: 109%
10,Cc1cc(C(=O)N/N=C/c2ccc(-c3ccc(C)c(Cl)c3)o2)n[nH]1,inconclusive: 639%
11,O=C1C(Cl)=C(NS(=O)(=O)c2ccc([N+](=O)[O-])cc2)C(=O)c2ccccc21,inconclusive: 79.8%
12,O=C(COC(=O)Cc1cccs1)Nc1ccccc1Cl,inconclusive: 99.8%
13,CCN1CNC(=S)N(c2ccccc2C)C1,inconclusive: 97.8%
14,Cc1ccc(CCN=c2c([N+](=O)[O-])nn(-c3ccccc3)n2O)cc1,inconclusive: 91.3%
15,O=C(c1c(Cl)cccc1Cl)N1CCN(c2cccc3[nH]ccc23)CC1,inconclusive: 104%
16,Cc1ccc(C(=O)N/N=C\c2ccc(-c3ccc(Cl)c(Cl)c3)o2)cn1,inconclusive: 92.8%
17,CCN1CCN(C(=O)C2CCN(S(=O)(=O)c3cccc4cccnc34)CC2)CC1,inactive: 115%
18,CC(=O)c1cccc(NC(=O)c2ccc3c(=O)n4c(nc3c2)CCCCC4)c1,inactive: 101%
19,CN(C(=O)CC1C(=O)NCCN1Cc1ccc(F)cc1)C1CCOCC1 (stereo unspecified),inconclusive: -144%
20,Cc1ccc(C2(CCNCc3ccc(N(C)C)cc3)CCOC(C(C)C)C2)cc1 (stereo unspecified),inconclusive: 103%
21,COc1ccccc1NC(=O)COC(=O)Cc1c[nH]c2ccccc12,inconclusive: 88.1%
22,COCCCNC(=S)Nc1cc(C)c(C)cc1C,inconclusive: 103%
